These are yes or no findings as the source states them, for the method shown. In cells and extracts the contact can be indirect. Some results given as binding are weak or reduced against the parent protein; the word gives no strength.
T1: RARα (mouse, 4T1 cells) (mouse (endogenous in 4T1)) (UniProt P11416)
T1 sequence: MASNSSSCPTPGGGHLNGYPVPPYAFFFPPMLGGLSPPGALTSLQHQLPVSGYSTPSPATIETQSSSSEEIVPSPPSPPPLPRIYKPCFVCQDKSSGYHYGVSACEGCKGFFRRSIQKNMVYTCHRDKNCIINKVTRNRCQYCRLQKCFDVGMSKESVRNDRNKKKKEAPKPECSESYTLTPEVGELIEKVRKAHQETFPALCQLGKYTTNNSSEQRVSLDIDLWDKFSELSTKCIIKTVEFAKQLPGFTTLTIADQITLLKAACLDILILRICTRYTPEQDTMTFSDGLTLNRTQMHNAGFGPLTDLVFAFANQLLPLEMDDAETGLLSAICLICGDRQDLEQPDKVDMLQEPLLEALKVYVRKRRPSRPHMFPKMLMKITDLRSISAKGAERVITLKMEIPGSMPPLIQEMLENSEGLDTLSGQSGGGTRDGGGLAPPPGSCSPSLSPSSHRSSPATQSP

T2: RXRα (mouse, 4T1 cells) (mouse (endogenous in 4T1)) (UniProt P28700)
T2 sequence: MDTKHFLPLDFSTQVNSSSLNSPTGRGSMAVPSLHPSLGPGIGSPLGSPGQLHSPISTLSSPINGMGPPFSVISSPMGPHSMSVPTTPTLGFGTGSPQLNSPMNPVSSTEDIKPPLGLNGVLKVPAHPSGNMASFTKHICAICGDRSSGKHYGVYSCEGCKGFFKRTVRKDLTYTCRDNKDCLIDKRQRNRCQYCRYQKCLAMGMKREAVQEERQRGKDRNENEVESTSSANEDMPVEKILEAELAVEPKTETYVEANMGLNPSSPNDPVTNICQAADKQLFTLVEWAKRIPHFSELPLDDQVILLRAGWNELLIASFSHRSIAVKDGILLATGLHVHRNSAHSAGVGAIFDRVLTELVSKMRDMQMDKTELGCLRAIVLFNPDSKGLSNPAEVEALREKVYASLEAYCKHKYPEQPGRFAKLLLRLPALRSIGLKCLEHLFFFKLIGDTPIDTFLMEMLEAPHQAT

T3: Sin3A (human (endogenous in MDA-MB-231 and MCF-7)) (UniProt Q96ST3)
T3 sequence: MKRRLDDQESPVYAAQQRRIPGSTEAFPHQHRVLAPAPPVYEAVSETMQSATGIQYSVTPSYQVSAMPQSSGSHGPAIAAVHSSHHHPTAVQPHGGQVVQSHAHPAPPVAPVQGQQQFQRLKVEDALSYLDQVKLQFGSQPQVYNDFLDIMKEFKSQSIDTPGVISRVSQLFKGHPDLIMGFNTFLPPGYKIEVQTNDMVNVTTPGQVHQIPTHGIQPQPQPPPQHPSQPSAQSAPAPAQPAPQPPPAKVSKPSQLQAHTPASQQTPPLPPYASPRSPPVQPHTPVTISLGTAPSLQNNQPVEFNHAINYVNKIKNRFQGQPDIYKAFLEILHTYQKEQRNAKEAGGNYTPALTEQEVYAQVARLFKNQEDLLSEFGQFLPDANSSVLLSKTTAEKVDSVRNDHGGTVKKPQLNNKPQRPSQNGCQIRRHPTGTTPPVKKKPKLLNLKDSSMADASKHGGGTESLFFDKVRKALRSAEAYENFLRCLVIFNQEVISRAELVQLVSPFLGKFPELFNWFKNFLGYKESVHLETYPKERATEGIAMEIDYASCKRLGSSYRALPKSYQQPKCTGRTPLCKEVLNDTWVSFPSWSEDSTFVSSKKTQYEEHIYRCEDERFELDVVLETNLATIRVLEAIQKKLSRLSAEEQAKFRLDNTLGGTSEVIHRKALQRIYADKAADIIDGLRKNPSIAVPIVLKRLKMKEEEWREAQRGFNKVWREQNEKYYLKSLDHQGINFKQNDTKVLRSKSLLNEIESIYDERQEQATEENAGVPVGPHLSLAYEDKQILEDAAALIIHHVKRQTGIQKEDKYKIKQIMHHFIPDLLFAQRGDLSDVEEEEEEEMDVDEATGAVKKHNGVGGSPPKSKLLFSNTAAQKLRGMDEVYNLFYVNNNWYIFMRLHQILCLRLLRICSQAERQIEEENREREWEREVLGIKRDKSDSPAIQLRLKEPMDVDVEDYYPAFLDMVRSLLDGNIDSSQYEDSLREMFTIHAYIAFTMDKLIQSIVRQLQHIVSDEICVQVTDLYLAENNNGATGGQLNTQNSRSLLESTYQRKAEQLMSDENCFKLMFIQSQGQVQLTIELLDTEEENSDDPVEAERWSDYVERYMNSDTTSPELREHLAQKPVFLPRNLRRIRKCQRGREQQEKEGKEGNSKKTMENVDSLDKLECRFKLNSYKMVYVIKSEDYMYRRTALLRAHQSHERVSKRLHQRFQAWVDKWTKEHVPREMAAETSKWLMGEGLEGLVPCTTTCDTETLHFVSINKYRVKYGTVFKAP

B1: Sin3A (mouse, 4T1 cells) (protein, UniProt Q60520 1-1274)
chain: MKRRLDDQESPVYAAQQRRIPGSTEAFSHQHRVLAPAPPVYEAVSETMQSATGIQYSVAPNYQVSAVPQSSGSHGPAIAAVHSSHHHPTAVQPHGGQVVQSHAHPAPPVAPVQGQQQFQRLKVEDALSYLDQVKLQFGSQPQVYNDFLDIMKEFKSQSIDTPGVISRVSQLFKGHPDLIMGFNTFLPPGYKIEVQTNDMVNVTTPGQVHQIPTHGIQPQPQPPPQHPSQPSSQSAPTPAQPAPQPTAAKVSKPSQLQAHTPASQQTPPLPPYASPRSPPVQPHTPVTISLGTAPSLQNNQPVEFNHAINYVNKIKNRFQGQPDIYKAFLEILHTYQKEQRNAKEAGGNYTPALTEQEVYAQVARLFKNQEDLLSEFGQFLPDANSSVLLSKTTAEKVDSVRNDHGGTVKKPQLNNKPQRPSQNGCQIRRHSGTGATPPVKKKPKLMSLKESSMADASKHGVGTESLFFDKVRKALRSAEAYENFLRCLVIFNQEVISRAELVQLVSPFLGKFPELFNWFKNFLGYKESVHLESFPKERATEGIAMEIDYASCKRLGSSYRALPKSYQQPKCTGRTPLCKEVLNDTWVSFPSWSEDSTFVSSKKTQYEEHIYRCEDERFELDVVLETNLATIRVLEAIQKKLSRLSAEEQAKFRLDNTLGGTSEVIHRKALQRIYADKAADIIDGLRKNPSIAVPIVLKRLKMKEEEWREAQRGFNKVWREQNEKYYLKSLDHQGINFKQNDTKVLRSKSLLNEIESIYDERQEQATEENAGVPVGPHLSLAYEDKQILEDAAALIIHHVKRQTGIQKEDKYKIKQIMHHFIPDLLFAQRGDLSDVEEEEEEEMDVDEATGAPKKHNGVGGSPPKSKLLFSNTAAQKLRGMDEVYNLFYVNNNWYIFMRLHQILCLRLLRICSQAERQIEEENREREWEREVLGIKRDKSDSPAIQLRLKEPMDVDVEDYYPAFLDMVRSLLDGNIDSSQYEDSLREMFTIHAYIAFTMDKLIQSIVRQLQHIVSDEVCVQVTDLYLAENNNGATGGQLNSQTSRSLLESAYQRKAEQLMSDENCFKLMFIQSQGQVQLTVELLDTEEENSDDPVEAERWSDYVERYMSSDTTSPELREHLAQKPVFLPRNLRRIRKCQRGREQQEKEGKEGNSKKTMENVESLDKLECRFKLNSYKMVYVIKSEDYMYRRTALLRAHQSHERVSKRLHQRFQAWVDKWTKEHVPREMAAETSKWLMGEGLEGLVPCTTTCDTETLHFVSINKYRVKYGTVFKAP

What was measured:
[1] = target: T1, RARα (mouse, 4T1 cells) (mouse (endogenous in 4T1)); experiment: co-IP; lysates (Pierce IP reagent, 2000 µg) of MDA-MB-231, MCF-7 and 4T1 cells, wild type, or transfected with pCMV/MAD-SID, or treated with 5 µM MAD-Scr or MAD-SID peptide for 24 h; overnight with primary antibody, protein A/G beads, SDS-PAGE and Western blot; mouse IgG as negative control
[2] = target: T2, RXRα (mouse, 4T1 cells) (mouse (endogenous in 4T1)); experiment: as above
[3] = target: T3, Sin3A (human (endogenous in MDA-MB-231 and MCF-7)); experiment: co-IP; synthetic MAD-SID peptide (5 µM, 24 h) added to living MCF-7 and MDA-MB-231 cells before lysis; read-out is the loss of endogenous partners from the Sin3A co-precipitate; only the binder purified

| Binder | binding [1] | binding [2] | binding [3] |
| --- | --- | --- | --- |
| B1 | binds | binds |  |
| YGRKKRRQGGGVRMNIQMLLEAADYLERRER [MAD1 (MXD1) SID peptide] |  |  | binds |
